Values of other authors, collected in patent publication US11798661B2, “Methods for lowering blood pressure with a dihydropyridine-type calcium channel blocker pharmaceutical composition” (A[…] Limited, priority 2018, dated 2023).

Settings: co-administration with grapefruit juice

COC(=O)C1=C(C)NC(C)=C(C(=O)OC)C1c1ccccc1[N+](=O)[O-] [nifedipine, 3,5-dimethyl 2,6-dimethyl-4-(2-nitrophenyl)-1,4-dihydropyridine-3,5-dicarboxylate]
change in area under the curve of blood concentration versus time (AUC): approximately a doubling
